For the assay, the target named is T1, Annexin A1 (human (endogenous in 6-10B)) (UniProt P04083).
T1 sequence: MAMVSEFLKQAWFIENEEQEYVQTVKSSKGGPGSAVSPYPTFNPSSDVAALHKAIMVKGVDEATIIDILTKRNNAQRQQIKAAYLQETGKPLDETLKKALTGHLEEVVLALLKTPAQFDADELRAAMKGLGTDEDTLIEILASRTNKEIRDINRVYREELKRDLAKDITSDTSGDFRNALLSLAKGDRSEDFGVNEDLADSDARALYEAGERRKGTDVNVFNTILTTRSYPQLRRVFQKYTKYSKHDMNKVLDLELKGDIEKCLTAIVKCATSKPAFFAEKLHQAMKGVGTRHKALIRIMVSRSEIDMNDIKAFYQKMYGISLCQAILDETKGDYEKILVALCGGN
Kind of assay: co-IP; 6-10B NPC cell lysate precleared, immunoprecipitated with anti-Annexin A1 antibody, Protein G agarose at 4°C, washed three times with PBS; Western blot with anti-Vimentin, anti-S100A9, anti-Annexin A1; non-immune IgG as negative control. (Immunoblotting shows a protein as a band on a membrane.)

Sequences of proteins named here, by UniProt entry; tags and fusion partners are left off.
UniProt P08670: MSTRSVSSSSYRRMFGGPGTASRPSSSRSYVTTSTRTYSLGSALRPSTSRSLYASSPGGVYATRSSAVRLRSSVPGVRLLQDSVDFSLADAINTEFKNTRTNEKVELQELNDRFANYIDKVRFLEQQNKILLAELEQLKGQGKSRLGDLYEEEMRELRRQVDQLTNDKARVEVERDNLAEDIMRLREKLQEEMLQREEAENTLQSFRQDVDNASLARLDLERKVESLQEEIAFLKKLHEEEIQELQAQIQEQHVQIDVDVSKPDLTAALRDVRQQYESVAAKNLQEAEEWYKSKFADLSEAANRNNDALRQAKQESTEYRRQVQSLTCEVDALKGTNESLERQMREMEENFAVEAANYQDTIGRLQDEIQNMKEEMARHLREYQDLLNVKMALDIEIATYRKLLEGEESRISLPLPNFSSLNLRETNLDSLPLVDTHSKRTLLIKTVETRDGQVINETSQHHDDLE

Data on two molecules can be found in PMC5371313.

No constants are given. Whether binding was seen depends on the method and setting. In cells and extracts the contact can be indirect. Some binding calls cover weakened binding; strength is not graded here.

Regarding Vimentin (from UniProt P08670 1-466), the binding result is “binds”.

B1: S100A9 (protein, UniProt P06702 1-114)
chain: MTCKMSQLERNIETIINTFHQYSVKLGHPDTLNQGEFKELVRKDLQNFLKKENKNEKVIEHIMEDLDTNADKQLSFEEFIMLMARLTWASHEKMHEGDEGPGHHHKPGLGEGTP
On to B1, for which the binding result is recorded as “binds”.
